Experimental data published in the supplement of paper PMC4604168 (melanoma cell lines).
The list shows a part of the results. Repeats are few or missing, and single values can be far off.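 The apoptosis fraction was the count of cleaved-PARP antibody-stained nuclei relative to all DNA-stained nuclei, imaged in 1,536-well plates. Screening doses were set so most cells survived, and baseline and induced cleaved-PARP levels vary greatly across cell lines.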

Assays:
Experiment in all cases: cleaved PARP positive nuclei fraction relative to DMSO control; melanoma cells; higher = more apoptosis
Settings in all cases: library dose: low library concentration; 72 h
501Mel = system: 501Mel
A101D = system: A101D
A2058 = system: A2058
A375 = system: A375
C32 = system: C32
CBRC008 = system: CBRC008 (line from a melanoma biopsy)
CBRC013 = system: CBRC013 (line from a melanoma biopsy)
CBRC014 = system: CBRC014 (line from a melanoma biopsy)
CBRC016 = system: CBRC016 (line from a melanoma biopsy)
CBRC017 = system: CBRC017 (line from a melanoma biopsy)
COLO792 = system: COLO792
COLO800 = system: COLO800
COLO829 = system: COLO829
G361 = system: G361
IPC-298 = system: IPC-298
IST-MEL1 = system: IST-MEL1
LB2518-MEL = system: LB2518-MEL
LOXIMVI = system: LOXIMVI
MEL-HO = system: MEL-HO

Structure (SMILES)	cleaved PARP positive nuclei fraction (501Mel) [%]	cleaved PARP positive nuclei fraction (A101D) [%]	cleaved PARP positive nuclei fraction (A2058) [%]	cleaved PARP positive nuclei fraction (A375) [%]	cleaved PARP positive nuclei fraction (C32) [%]	cleaved PARP positive nuclei fraction (CBRC008) [%]	cleaved PARP positive nuclei fraction (CBRC013) [%]	cleaved PARP positive nuclei fraction (CBRC014) [%]	cleaved PARP positive nuclei fraction (CBRC016) [%]	cleaved PARP positive nuclei fraction (CBRC017) [%]	cleaved PARP positive nuclei fraction (COLO792) [%]	cleaved PARP positive nuclei fraction (COLO800) [%]	cleaved PARP positive nuclei fraction (COLO829) [%]	cleaved PARP positive nuclei fraction (G361) [%]	cleaved PARP positive nuclei fraction (IPC-298) [%]	cleaved PARP positive nuclei fraction (IST-MEL1) [%]	cleaved PARP positive nuclei fraction (LB2518-MEL) [%]	cleaved PARP positive nuclei fraction (LOXIMVI) [%]	cleaved PARP positive nuclei fraction (MEL-HO) [%]
CCCCCCCCCCCCCCCCCCOP(=O)([O-])OC1CC[N+](C)(C)CC1 [Perifosine] + COc1cc(Nc2ncc(F)c(Nc3ccc4c(n3)NC(=O)C(C)(C)O4)n2)cc(OC)c1OC [Tamatinib] (first compound 0.4 µM, partner dose 0.4 µM)	217	156	312	10400	198	532	134	111	136	123	170	60.1	89.7	132	185	97.9	143	149	160
CCCCCCCCCCCCCCCCCCOP(=O)([O-])OC1CC[N+](C)(C)CC1 [Perifosine] + CO[C@@H]1[C@H](N(C)C(=O)c2ccccc2)C[C@H]2O[C@]1(C)n1c3ccccc3c3c4c(c5c6ccccc6n2c5c31)C(=O)NC4 [Midostaurin] (first compound 0.4 µM, partner dose 0.08 µM)	260	95.4	177	1080	36	75.8	129	93.2	199	123	61.3	79.5	111	98.5	47.5	100	108	55.7	134
CCCCCCCCCCCCCCCCCCOP(=O)([O-])OC1CC[N+](C)(C)CC1 [Perifosine] + COc1cc2c(Oc3ccc4[nH]c(C)cc4c3F)ncnc2cc1OCCCN1CCCC1 [cediranib] (first compound 0.4 µM, partner dose 0.4 µM)	126	45	76.3	243	47.5	42.6	112	86.8	168	88	78.3	68	67.7	67	90.1	31.8	50.7	19.9	70.2
Cc1ccc(Nc2nccc(N(C)c3ccc4c(C)n(C)nc4c3)n2)cc1S(N)(=O)=O [Pazopanib] + Cn1cncc1[C@@](N)(c1ccc(Cl)cc1)c1ccc2c(c1)c(-c1cccc(Cl)c1)cc(=O)n2C [tipifarnib] (first compound 0.4 µM, partner dose 0.01 µM)	96.9	25.4	130	213	79.6	103	106	96	148	84.6	49.3	238	70.6	76.4	50.4	36	76.9	150	448
CC[C@]1(O)C[C@H]2CN(CCc3c([nH]c4ccccc34)[C@@](C(=O)OC)(c3cc4c(cc3OC)N(C=O)[C@H]3[C@@](O)(C(=O)OC)[C@H](OC(C)=O)[C@]5(CC)C=CCN6CC[C@]43[C@@H]65)C2)C1 [vincristine] + CN(NC(=O)CC(=O)NN(C)C(=S)c1ccccc1)C(=S)c1ccccc1 [STA4783] (first compound 0.0001 µM, partner dose 0.006 µM)	261	147	3550	1060	745	2750	69.5	482	301	242	244	187	295	237	70.9	124	74.6	46.1	274
COc1cc([C@@H]2c3cc4c(cc3[C@@H](O[C@@H]3O[C@@H]5CO[C@@H](C)O[C@H]5[C@H](O)[C@H]3O)[C@H]3COC(=O)[C@H]23)OCO4)cc(OC)c1O [etoposide] + CN(C)S(=O)(=O)c1ccc2c(c1)/C(=C/c1cc3c([nH]1)CCCC3)C(=O)N2 [SU6656] (first compound 0.02 µM, partner dose 0.4 µM)	155	48	102	180	71	137	202	3500	250	76.4	117	36.8	51.6	111	188	88.2	139	52.5	27.8
N#CC[C@H](C1CCCC1)n1cc(-c2ncnc3[nH]ccc23)cn1 [ruxolitinib] + Cc1ccc(NC(=O)c2cccc(N(C)C)c2)cc1NC(=O)c1ccc(O)cc1 [ZM336372] (first compound 1 µM, partner dose 2 µM)	47.4	68.2	126	125	133	168	76	117	170	531	69.9	52.3	74.9	66.1	105	109	197	54.3	65
O=c1[nH]nc(Sc2ncc([N+](=O)[O-])s2)n1-c1ccc2c(c1)OCCO2 + O=C(Nc1cccc(Cl)c1)Nc1ncc(CCNc2ncnc3ccsc23)s1 [SNS314] (first compound 0.2 µM, partner dose 0.0008 µM)	70.2	58.4	57.1	120	76.1	156	126	76.5	135	88.1	83.3	101	125	49.2	88	66.7	89.4	25.7	92.4
CCCCCCCCCCCCCCCCCCOP(=O)([O-])OC1CC[N+](C)(C)CC1 [Perifosine] + CC(C)(C)c1cnc(CSc2cnc(NC(=O)C3CCNCC3)s2)o1 [SNS-032] (first compound 0.4 µM, partner dose 0.01 µM)	304	156	362	6760	70.6	241	128	175	190	285	177	43.8	128	309	87.6	32.9	97	87.6	68.7
CCCCCCCCCCCCCCCCCCOP(=O)([O-])OC1CC[N+](C)(C)CC1 [Perifosine] + O=C(Nc1cccc(Cl)c1)Nc1ncc(CCNc2ncnc3ccsc23)s1 [SNS314] (first compound 0.4 µM, partner dose 0.0008 µM)	99.7	96.1	222	78.3	58.9	71.6	89.6	105	196	158	83.1	81.3	67.6	75.8	87.9	25.1	54.9	24.7	209
CCCCCCCCCCCCCCCCCCOP(=O)([O-])OC1CC[N+](C)(C)CC1 [Perifosine] + CC1(C)NC(=O)N(c2ccc([N+](=O)[O-])c(C(F)(F)F)c2)C1=O [nilutamide] (first compound 0.4 µM, partner dose 1 µM)	109	169	184	30700	173	263	132	118	134	86.3	54.3	79.8	163	120	60.1	132	51	55.4	71.9
Cc1cc(Nc2cc(N3CCN(C)CC3)nc(Sc3ccc(NC(=O)C4CC4)cc3)n2)n[nH]1 [Tozasertib] + CN(NC(=O)CC(=O)NN(C)C(=S)c1ccccc1)C(=S)c1ccccc1 [STA4783] (first compound 0.006 µM, partner dose 0.006 µM)	218	159	175	7180	194	1410	78.4	517	217	201	129	75.8	67.6	126	21.1	86.7	185	74.8	147
Cc1cn(-c2cc(NC(=O)c3ccc(C)c(Nc4nccc(-c5cccnc5)n4)c3)cc(C(F)(F)F)c2)cn1 [nilotinib] + NC(=O)Nc1cc(-c2cccc(F)c2)sc1C(=O)N[C@H]1CCCNC1 [AZD7762] (first compound 0.2 µM, partner dose 0.02 µM)	72	99.4	112	540	147	87.4	123	74.7	89.2	65.8	117	105	122	127	44.1	1500	129	88.8	96.7
Cc1cn(-c2cc(NC(=O)c3ccc(C)c(Nc4nccc(-c5cccnc5)n4)c3)cc(C(F)(F)F)c2)cn1 [nilotinib] + CN(NC(=O)CC(=O)NN(C)C(=S)c1ccccc1)C(=S)c1ccccc1 [STA4783] (first compound 0.2 µM, partner dose 0.006 µM)	451	98.9	105	688	41	1560	138	438	128	317	200	175	95.1	126	77.4	117	92.6	90.1	71.2
N#CC[C@H](C1CCCC1)n1cc(-c2ncnc3[nH]ccc23)cn1 [ruxolitinib] + C[C@@H]1CCN(C(=O)CC#N)C[C@@H]1N(C)c1ncnc2[nH]ccc12 [CP690550] (first compound 1 µM, partner dose 1 µM)	59.6	132	43.4	20	52.1	111	103	83.3	103	69.9	48.7	62.4	67.2	60.4	41.8	91.8	70.2	98.7	159
O=c1[nH]nc(Sc2ncc([N+](=O)[O-])s2)n1-c1ccc2c(c1)OCCO2 + O=C(CCCCCCC(=O)Nc1ccccc1)NO [vorinostat] (first compound 0.2 µM, partner dose 0.08 µM)	51.4	99.5	106	90.5	88.6	54.9	104	81.2	110	88.1	119	95	108	31.2	83.7	91.1	89.9	86.3	170
Cc1cn(-c2cc(NC(=O)c3ccc(C)c(Nc4nccc(-c5cccnc5)n4)c3)cc(C(F)(F)F)c2)cn1 [nilotinib] + Cn1cncc1[C@@](N)(c1ccc(Cl)cc1)c1ccc2c(c1)c(-c1cccc(Cl)c1)cc(=O)n2C [tipifarnib] (first compound 0.2 µM, partner dose 0.01 µM)	112	39.7	154	332	86.4	159	85.2	75.2	184	88.2	265	57.2	189	116	90.9	192	93	77.5	102

Part of the list above, as comma-separated lines.
Structure (SMILES),cleaved PARP positive nuclei fraction (501Mel) [%],cleaved PARP positive nuclei fraction (A101D) [%],cleaved PARP positive nuclei fraction (A2058) [%],cleaved PARP positive nuclei fraction (A375) [%],cleaved PARP positive nuclei fraction (C32) [%],cleaved PARP positive nuclei fraction (CBRC008) [%],cleaved PARP positive nuclei fraction (CBRC013) [%],cleaved PARP positive nuclei fraction (CBRC014) [%],cleaved PARP positive nuclei fraction (CBRC016) [%],cleaved PARP positive nuclei fraction (CBRC017) [%],cleaved PARP positive nuclei fraction (COLO792) [%],cleaved PARP positive nuclei fraction (COLO800) [%],cleaved PARP positive nuclei fraction (COLO829) [%],cleaved PARP positive nuclei fraction (G361) [%],cleaved PARP positive nuclei fraction (IPC-298) [%],cleaved PARP positive nuclei fraction (IST-MEL1) [%],cleaved PARP positive nuclei fraction (LB2518-MEL) [%],cleaved PARP positive nuclei fraction (LOXIMVI) [%],cleaved PARP positive nuclei fraction (MEL-HO) [%]
"Cc1ccc(Nc2nccc(N(C)c3ccc4c(C)n(C)nc4c3)n2)cc1S(N)(=O)=O [Pazopanib] + Cn1cncc1[C@@](N)(c1ccc(Cl)cc1)c1ccc2c(c1)c(-c1cccc(Cl)c1)cc(=O)n2C [tipifarnib] (first compound 0.4 µM, partner dose 0.01 µM)",96.9,25.4,130,213,79.6,103,106,96,148,84.6,49.3,238,70.6,76.4,50.4,36,76.9,150,448
"CC[C@]1(O)C[C@H]2CN(CCc3c([nH]c4ccccc34)[C@@](C(=O)OC)(c3cc4c(cc3OC)N(C=O)[C@H]3[C@@](O)(C(=O)OC)[C@H](OC(C)=O)[C@]5(CC)C=CCN6CC[C@]43[C@@H]65)C2)C1 [vincristine] + CN(NC(=O)CC(=O)NN(C)C(=S)c1ccccc1)C(=S)c1ccccc1 [STA4783] (first compound 0.0001 µM, partner dose 0.006 µM)",261,147,3550,1060,745,2750,69.5,482,301,242,244,187,295,237,70.9,124,74.6,46.1,274
